Here are results for 35 compounds from PubChem BioAssay AID1487 (National Center for Advancing Translational Sciences (NCATS), 2009).

The list shows a part of the results. Further columns of the screen follow, without active or inactive calls. Compounds called inactive in the main read-out are mostly missing here. The note in brackets gives the kind of curve behind each potency; many fits are weak.

The test can be described thus: qHTS Assay for Modulators of Lamin A Splicing. The following applies: HeLa LMNA splicing GFP/RFP minigene ratio, 48 h. The method in brief:
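S3 HeLa cells stably expressing lamin A-EGFP splicing minigene plus DsRed2, 600 cells/well, 48 h compound exposure at 37C. Laser-scanning cytometry; analysed as GFP (500-530 nm)/RFP (575-640 nm) total intensity ratio; 0.5% DMSO vehicle.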
In general terms: In qHTS, concentration-response curves come from the screen itself.

[1] abbreviates: measured here: RFP viability control channel.
Where [2] appears, read: measured here: GFP splicing reporter channel.

On to `O=C(CCN1CCN(c2ccccc2F)CC1)c1ccc(Br)cc1`, for which the AC50 under setting [1] is 14.1 µM [rising, single point].

Regarding `CCCn1c(C)cc(C(=O)COc2ccc(S(=O)(=O)N(CC)CC)cc2[N+](=O)[O-])c1C`, the AC50 runs as follows: under setting [2], 35.5 µM [rising, single point]; under setting [1], 35.5 µM [rising, single point].

For the compound `CN(C(=O)C1CCN(S(=O)(=O)c2cccs2)CC1)c1ccccc1`, under setting [1], the AC50 was 12.6 µM [rising, single point].

`CCCCNC(=O)CCCCCn1c(=O)[nH]c2ccccc2c1=O`: under setting [2], the AC50 was 0.00891 µM [rising, full curve, poor fit].

In the case of `CCCOc1ccc(C2C(C(=O)/C=C/c3ccco3)=C(O)C(=O)N2CCN2CCOCC2)cc1OC` (configuration not stated), the AC50 under setting [2] was 0.0316 µM [rising, single point].

As to `Cc1cc(C(=O)CSc2nnc(-c3ccc(F)cc3)o2)c(C)n1CC1CCCO1` (configuration not stated), the AC50 was 10 µM [rising, partial curve] under setting [2] and 12.6 µM [rising, partial curve] under setting [1].

As for `COCCNC(=O)C(c1cccs1)N(C(=O)Cn1nnc2ccccc21)c1ccc2c(c1)OCO2` (configuration not stated), the AC50 under setting [1] is 0.251 µM [rising, full curve].

Turning to `CC/C=C\C/C=C\C/C=C\CCCCCCCC(=O)O`, the AC50 is 17.8 µM [rising, single point] under setting [2] and 22.4 µM [rising, single point] under setting [1].

On to `Nn1c(Nc2ccccc2)nc2sc3c(c2c1=O)CCC3`, for which, under setting [1], the AC50 is 11.2 µM [rising, partial curve].

Turning to `Cc1ccc(C(C)C)c(O)c1`, the AC50 is, setting by setting: under setting [2], 0.316 µM [falling, partial curve, poor fit]; under setting [1], 0.794 µM [falling, single point].

`CCOC(=O)c1c(NC(=O)COC(=O)CNC(=O)c2ccco2)sc(C)c1C`: the AC50 under setting [1] was 3.98 µM [rising, partial curve].

Consider `CCC1=[N+](CC(=O)c2ccc(C)cc2)CCn2cccc21`, for which the AC50 is 22.4 µM [rising, partial curve, poor fit] under setting [2] and 28.2 µM [rising, partial curve] under setting [1].

Consider `O=C(CN1CCSC1=NCc1ccccc1)c1ccc(Cl)cc1`, for which the AC50 under setting [1] is 31.6 µM [rising, single point].

Turning to `CCc1ccc(/C=N/n2c(C)cc(C)c(C#N)c2=O)cc1`, the AC50 under setting [1] is 0.01 µM [rising, full curve, poor fit].

On to `COc1ccc(-c2cn3nc(N4CCCC(C(=O)NCc5ccc(Cl)cc5)C4)sc3n2)cc1` (configuration not stated), for which the AC50 under setting [2] is 15.8 µM [falling, partial curve, poor fit] and the half-maximal activity concentration (AC50) under setting [1] is 5.01 µM [falling, partial curve, poor fit].

With `O=C(NC1CC1)C1CCN(c2ccc(S(=O)(=O)N3CCOCC3)cc2)CC1`, the half-maximal activity concentration (AC50) under setting [1] is 10 µM [rising, partial curve, poor fit].

Turning to `C/C(=N/NC(=S)Nc1ccccc1)c1ccc2c(c1)OCO2`, the AC50 under setting [1] is 35.5 µM [rising, single point].

As to `COc1cc(O)c(C(=O)c2ccccc2)cc1O`, the AC50 is, setting by setting: under setting [2], 17.8 µM [falling, single point]; under setting [1], 22.4 µM [falling, single point].

`Cc1c(C(=O)NCc2cccc(Cl)c2)sc2nc3n(c(=O)c12)CCCC3`: the AC50 under setting [1] was 0.0158 µM [falling, full curve, poor fit].

In the case of `Cc1ccc2c(c1)c(C)c(C)n2CC(O)Cn1nc(C)c(Br)c1C` (configuration not stated), the AC50 runs as follows: under setting [2], 20 µM [rising, partial curve]; under setting [1], 15.8 µM [rising, partial curve].

As to `Cc1ccccc1-c1nnc(SCC(=O)N(CC(C)C)c2c(N)n(CC(C)C)c(=O)[nH]c2=O)n1C`, the AC50 under setting [2] is 0.02 µM [rising, full curve, poor fit].

Regarding `C=CCOC(=O)C1=C(C)NC(=O)NC1/C=C/c1ccccc1OC` (configuration not stated), the AC50 under setting [2] is 0.2 µM [falling, full curve, poor fit].

For `COc1ccc([N+](=O)[O-])cc1NC(=O)CSCc1cc(C)cc(C)c1`, under setting [1], the AC50 was 12.6 µM [rising, partial curve].

With `CCN(CC)CCCNC(=O)c1ccc(Cn2c(SCc3ccccc3)nc3cccnc32)cc1`, the AC50 under setting [2] is 39.8 µM [falling, partial curve, poor fit].

Consider `Cn1c(=O)n(Cc2c(F)cccc2Cl)c(=O)c2c1nc1n2CCN1c1ccc(F)cc1`, for which the AC50 under setting [1] was 2.24 µM [rising, full curve, poor fit].

Regarding `Nc1ccc2nc(-c3ccccc3)sc2c1`, the AC50 under setting [2] is 0.398 µM [rising, full curve, poor fit].

Take `Cc1cc(CNC(=O)[C@H](C)[C@@H]2C[C@@]2(C)[C@@H](NC(=O)OCc2ccccc2)c2ccccc2)nn1C`: the AC50 under setting [1] was 0.112 µM [rising, full curve, poor fit].

Consider `O=C(CN1CCN(CCC(=O)Nc2ccccc2F)CC1)Nc1ccc(Cl)cc1`, for which the AC50 by setting is: under setting [2], 12.6 µM [rising, single point]; under setting [1], 17.8 µM [rising, single point].

On to `COc1ccc2[nH]cc(CCNc3ncnc4ccc(-c5c(C)noc5C)cc34)c2c1`, for which the AC50 under setting [2] was 35.5 µM [falling, single point].

As to `Nc1nnc(-c2cc3c(ccc4ccccc43)oc2=O)s1`, the AC50 under setting [1] is 10 µM [rising, partial curve, poor fit].

Consider `O=C1c2oc3ccc(Cl)cc3c(=O)c2C(c2ccco2)N1CCN1CCOCC1` (configuration not stated), for which, under setting [1], the AC50 was 35.5 µM [rising, single point].

Take `CCN1CCN(c2ccc([N+](=O)[O-])c(Sc3nc4ccccc4[nH]3)c2)CC1`: the AC50 was 31.6 µM [falling, single point] under setting [2] and 8.91 µM [rising, partial curve] under setting [1].

On to `CC(C)Oc1cccc(C(=O)Nc2ccc(Br)cc2F)c1`, for which the AC50 reads like this: under setting [2], 22.4 µM [rising, partial curve, poor fit]; under setting [1], 35.5 µM [rising, single point].

As for `COc1ccc(C2=NN(c3nc4ccccc4s3)C(=O)/C2=C\N(C)C)cc1`, under setting [1], the AC50 was 0.631 µM [rising, full curve, poor fit].

For `Cc1nn(CCC#N)c(NC(=O)c2ccccc2)c1P(=O)(Nc1ccc(Br)cc1)N1CCOCC1` (configuration not stated), the AC50 is 0.708 µM [falling, full curve] under setting [2] and 0.0316 µM [falling, full curve, poor fit] under setting [1].

Usually AC50 stands for the midpoint of the concentration-response curve, whichever way the signal moves.
